PubChem BioAssay AID1259405 | NCATS | 2018

Screen: 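Knock-downs that lift recombinant protein yield in hamster ovary cells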 (primary screen)
System: Chinese hamster CHO-K1 ovary cells with stable secreted eGFP expression
Reagent: single siRNA against mouse genes, 0.8 pmol siRNA per well (2 µl of 400 nM stock)
Timing: 3 days
Measured: 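Per-well intracellular GFP measured by laser scanning cytometry, plus viability from ATP luminescence, each relative to plate median of non-targeting control wells, in %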
Direction: GFP, % of control: higher = more GFP per well, higher productivity
Active means: 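a knock-down is called active if GFP reaches 120% or more of non-targeting control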
The whole screen tested about 50,000 reagents; shown is a random part of them. About 4,000 of all reagents (8%) count as active. 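Mouse siRNA library applied to hamster cells; one well for each siRNA.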 Reagents against one gene are numbered here. Not all columns of the deposit are shown.

GFP, % of control, by gene and reagent
Dpp3: #1 99.6 inactive; #2 84.2 inactive; #3 64.7 inactive
Esco2: #1 36.3 inactive; #2 63.7 inactive; #3 56.8 inactive
Trim34a: #1 48.4 inactive; #2 40 inactive; #3 46.5 inactive
Parvg: #1 67.1 inactive; #2 66.4 inactive; #3 70.2 inactive
Zfp82: #1 49 inactive; #2 70.6 inactive; #3 93.2 inactive
Tsnaxip1: #1 69.8 inactive; #2 88.3 inactive; #3 77.2 inactive
Apip: #1 74.5 inactive; #2 92.5 inactive; #3 42.8 inactive
Cimip2c: #1 110 inactive; #2 71 inactive; #3 151 active
Wdr20rt: #1 39.5 inactive; #2 85.3 inactive; #3 74.1 inactive
Rab43: #1 50.5 inactive; #2 40.4 inactive; #3 66.4 inactive
Cyp4x1: #1 98.7 inactive; #2 83.6 inactive; #3 78.9 inactive
Optn: #1 90.1 inactive; #2 85.4 inactive; #3 78.4 inactive
Trpc5: #1 116 inactive; #2 98.1 inactive; #3 121 active
Ftcd: #1 86.9 inactive; #2 69.1 inactive; #3 84.8 inactive
Ppargc1a: #1 74.5 inactive; #2 108 inactive
Cox4i2: #1 142 active; #2 108 inactive; #3 75.6 inactive
Plcl2: #1 70.3 inactive; #2 80.3 inactive; #3 114 inactive
Cog3: #1 27.2 inactive; #2 69 inactive; #3 62 inactive
Epha5: #1 88.1 inactive; #2 49.1 inactive; #3 61.5 inactive
Vmn2r26: #1 76.5 inactive; #2 53.4 inactive; #3 26.8 inactive
Efna1: #1 83.9 inactive; #2 89.4 inactive; #3 113 inactive
Serpinb13: #1 65.1 inactive; #2 81.1 inactive; #3 52.1 inactive
Slc35h1: #1 103 inactive; #2 69.6 inactive; #3 56.6 inactive
Grb2: #1 117 inactive; #2 75.8 inactive; #3 75.3 inactive
Naxd: #1 88.8 inactive; #2 104 inactive; #3 82.9 inactive
Lefty2: #1 62.2 inactive; #2 92 inactive
Nkd1: #1 62 inactive; #2 80 inactive; #3 99.5 inactive
Avpi1: #1 53.7 inactive; #2 72 inactive; #3 32.1 inactive
Lrrc15: #1 131 active; #2 45 inactive; #3 74.4 inactive
Paox: #1 83.6 inactive; #2 67.9 inactive; #3 88.5 inactive
Csf2rb: #1 116 inactive; #2 52.2 inactive; #3 89.2 inactive
Incenp: #1 98.1 inactive; #2 97.4 inactive; #3 81.8 inactive
Liat1: #1 85.6 inactive; #2 57.2 inactive; #3 96.6 inactive
Chst15: #1 96.2 inactive; #2 84.2 inactive; #3 61.1 inactive
Kpna1: #1 84.7 inactive; #2 100 inactive; #3 55.8 inactive
Grin2b: #1 101 inactive; #2 61.5 inactive; #3 53.6 inactive
Ctnna3: #1 202 active; #2 55.4 inactive

17 consecutive records already listed, for reference:
GFP, % of control, by gene and reagent
Rab43: #3 66.4 inactive
Cyp4x1: #1 98.7 inactive; #2 83.6 inactive; #3 78.9 inactive
Optn: #1 90.1 inactive; #2 85.4 inactive; #3 78.4 inactive
Trpc5: #1 116 inactive; #2 98.1 inactive; #3 121 active
Ftcd: #1 86.9 inactive; #2 69.1 inactive; #3 84.8 inactive
Ppargc1a: #1 74.5 inactive; #2 108 inactive
Cox4i2: #1 142 active; #2 108 inactive
